This experiment deals with T1, Tagged OTUD4 expressed in HEK293T cells (human) (UniProt Q01804).
T1 sequence: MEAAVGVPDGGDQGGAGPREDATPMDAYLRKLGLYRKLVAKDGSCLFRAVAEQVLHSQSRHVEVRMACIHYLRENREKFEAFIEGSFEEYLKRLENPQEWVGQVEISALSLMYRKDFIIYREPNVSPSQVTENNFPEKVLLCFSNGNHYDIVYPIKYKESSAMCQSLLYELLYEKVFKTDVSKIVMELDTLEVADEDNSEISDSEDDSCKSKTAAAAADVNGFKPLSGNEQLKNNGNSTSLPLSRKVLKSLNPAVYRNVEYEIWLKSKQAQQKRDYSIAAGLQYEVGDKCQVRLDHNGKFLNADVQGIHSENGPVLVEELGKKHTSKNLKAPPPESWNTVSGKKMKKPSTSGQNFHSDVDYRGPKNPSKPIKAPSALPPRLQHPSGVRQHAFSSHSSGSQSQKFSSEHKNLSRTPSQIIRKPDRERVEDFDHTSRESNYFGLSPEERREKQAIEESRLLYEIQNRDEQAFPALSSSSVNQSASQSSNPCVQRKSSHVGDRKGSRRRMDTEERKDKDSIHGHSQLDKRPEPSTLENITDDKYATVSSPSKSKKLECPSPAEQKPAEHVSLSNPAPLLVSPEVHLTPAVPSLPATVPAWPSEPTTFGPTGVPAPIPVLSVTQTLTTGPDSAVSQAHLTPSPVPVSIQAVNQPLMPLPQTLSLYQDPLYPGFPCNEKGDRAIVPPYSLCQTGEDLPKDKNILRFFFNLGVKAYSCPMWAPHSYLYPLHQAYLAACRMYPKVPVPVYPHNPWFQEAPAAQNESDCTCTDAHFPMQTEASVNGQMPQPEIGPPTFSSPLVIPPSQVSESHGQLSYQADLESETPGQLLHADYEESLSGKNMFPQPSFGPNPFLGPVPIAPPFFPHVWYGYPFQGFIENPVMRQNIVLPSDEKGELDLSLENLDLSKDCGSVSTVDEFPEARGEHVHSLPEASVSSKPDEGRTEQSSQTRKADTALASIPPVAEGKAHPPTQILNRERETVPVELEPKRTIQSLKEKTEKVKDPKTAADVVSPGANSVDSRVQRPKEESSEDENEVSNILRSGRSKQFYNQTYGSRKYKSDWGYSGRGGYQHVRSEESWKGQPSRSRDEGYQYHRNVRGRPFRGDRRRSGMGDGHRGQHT
In words: co-IP; HEK293T cells transfected as indicated; tagged OTUD4 precipitated (anti-HA agarose, anti-FLAG M2 or GFP-Trap beads as indicated); lysate incubated at 37°C for 15 min without RNase A (IGF2BP3 and TIAR also with 50 µg/ml RNase A, interaction enhanced); washes 10 mM Tris-HCl pH 7.5, 150 mM NaCl, 0.1% Triton X-100, 5% glycerol; western blot.

By UniProt entry, the sequences of proteins in these tests, tags left out.
UniProt O00425: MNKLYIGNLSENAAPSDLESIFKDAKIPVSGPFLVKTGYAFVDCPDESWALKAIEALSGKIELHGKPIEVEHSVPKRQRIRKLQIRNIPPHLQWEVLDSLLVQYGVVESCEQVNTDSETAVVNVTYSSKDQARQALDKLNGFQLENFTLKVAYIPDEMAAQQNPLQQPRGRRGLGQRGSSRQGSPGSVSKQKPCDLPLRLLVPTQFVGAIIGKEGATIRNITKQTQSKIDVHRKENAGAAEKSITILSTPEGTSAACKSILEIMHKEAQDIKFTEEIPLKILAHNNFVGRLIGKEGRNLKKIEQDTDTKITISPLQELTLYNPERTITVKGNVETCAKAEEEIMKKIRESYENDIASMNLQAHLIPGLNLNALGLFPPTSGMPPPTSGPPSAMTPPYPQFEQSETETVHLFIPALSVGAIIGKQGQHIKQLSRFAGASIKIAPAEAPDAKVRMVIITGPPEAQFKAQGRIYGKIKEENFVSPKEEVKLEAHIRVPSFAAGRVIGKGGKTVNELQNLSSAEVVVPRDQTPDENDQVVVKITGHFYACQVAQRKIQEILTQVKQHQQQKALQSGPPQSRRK

We go through 2 molecules from publication PMC6602300.

Results are given in words; binding and its absence hold for the method and conditions named. Binding seen in cells or lysates may run through a third protein. Some binding calls cover weakened binding; strength is not graded here. Where a sequence is shown, tags or fusion partners need not be part of it.

For “Myc–IGF2BP3 (insulin-like growth factor 2 mRNA-binding protein 3) (from UniProt O00425 1-579)”, the binding entry was “binds”.

B1: Endogenous TIA1-related protein (TIAR) of HEK293T cells (protein, UniProt Q01085 1-375)
chain: MMEDDGQPRTLYVGNLSRDVTEVLILQLFSQIGPCKSCKMITEHTSNDPYCFVEFYEHRDAAAALAAMNGRKILGKEVKVNWATTPSSQKKDTSNHFHVFVGDLSPEITTEDIKSAFAPFGKISDARVVKDMATGKSKGYGFVSFYNKLDAENAIVHMGGQWLGGRQIRTNWATRKPPAPKSTQENNTKQLRFEDVVNQSSPKNCTVYCGGIASGLTDQLMRQTFSPFGQIMEIRVFPEKGYSFVRFSTHESAAHAIVSVNGTTIEGHVVKCYWGKESPDMTKNFQQVDYSQWGQWSQVYGNPQQYGQYMANGWQVPPYGVYGQPWNQQGFGVDQSPSAAWMGGFGAQPPQGQAPPPVIPPPNQAGYGMASYQTQ
Turning to B1, the binding entry was “binds”.
